Article PMC4032982
No constants are given. Whether binding was seen depends on the method and setting. Binding seen in cells or lysates may run through a third protein.

T1: AKINβγ (Arabidopsis thaliana (endogenous in leaves)) (UniProt Q944A6)
T1 sequence: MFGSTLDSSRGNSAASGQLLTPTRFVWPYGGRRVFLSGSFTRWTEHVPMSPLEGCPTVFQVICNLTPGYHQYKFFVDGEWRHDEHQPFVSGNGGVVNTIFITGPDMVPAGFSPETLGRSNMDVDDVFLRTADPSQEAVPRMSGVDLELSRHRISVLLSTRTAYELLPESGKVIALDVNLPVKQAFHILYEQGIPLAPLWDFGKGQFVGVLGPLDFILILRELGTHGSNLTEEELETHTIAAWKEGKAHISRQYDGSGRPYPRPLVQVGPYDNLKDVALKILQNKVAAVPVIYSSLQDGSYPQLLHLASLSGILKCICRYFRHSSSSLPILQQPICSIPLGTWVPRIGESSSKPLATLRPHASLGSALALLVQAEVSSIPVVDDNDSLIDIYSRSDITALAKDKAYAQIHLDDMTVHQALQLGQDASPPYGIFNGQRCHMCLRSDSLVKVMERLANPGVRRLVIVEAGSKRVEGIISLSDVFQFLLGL


Target: T1, AKINβγ (Arabidopsis thaliana (endogenous in leaves))
Test: co-sedimentation; 40 μg desalted soluble leaf protein incubated with 5 mg starch granules or 10 mg amylose/amylopectin mixture (A/A) in 50 mM Tris-HCl pH 7.5, 30 min at 4°C; pellet collected at 5000 × g, washed, and blotted with antibodies against the SnRK1 subunits

binding	Binder
no binding	AKINγ (protein, UniProt Q8LBB2 1-424) MATVPEIKIMRSESLGHRSDVSSPEAKLGMRVEDLWDEQKPQLSPNEKLNACFESIPVSAFPLSSDSQDIEIRSDTSLAEAVQTLSKFKVLSAPVVDVDAPEDASWIDRYIGIVEFPGIVVWLLHQLEPPSPRSPAVAASNGFSHDFTTDVLDNGDSAVTSGNFFEVLTSSELYKNTKVRDISGTFRWAPFLALQKENSFLTMLLLLSKYKMKSIPVVDLGVAKIENIITQSGVIHMLAECAGLLWFEDWGIKTLSEVGLPIMSKDHIIKIYEDEPVLQAFKLMRRKRIGGIPVIERNSEKPVGNISLRDVQFLLTAPEIYHDYRSITTKNFLVSVREHLEKCGDTSAPIMSGVIACTKNHTLKELILMLDAEKIHRIYVVDDFGNLEGLITLRDIIARLVHEPSGYFGDFFDGVMPLPENYRV
no binding	AKINβ2 (protein, UniProt Q9SCY5 1-289) MGNVNAREEANSNNASAVEDEDAEICSREAMSAASDGNHVAPPELMGQSPPHSPRATQSPLMFAPQVPVLPLQRPDEIHIPNPSWMQSPSSLYEEASNEQGIPTMITWCHGGKEIAVEGSWDNWKTRSRLQRSGKDFTIMKVLPSGVYEYRFIVDGQWRHAPELPLARDDAGNTFNILDLQDYVPEDIQSISGFEPPQSPENSYSNLLLGAEDYSKEPPVVPPHLQMTLLNLPAANPDIPSPLPRPQHVILNHLYMQKGKSGPSVVALGSTHRFLAKYVTVVLYKSLQR
no binding	AKINβ1 (protein, UniProt Q84VQ1 1-283) MGNANGKDEDAAAGSGGADVTSSSARSNGGDPSARSRHRRPSSDSMSSSPPGSPARSPSPFLFAPQVPVAPLQRANAPPPNNIQWNQSQRVFDNPPEQGIPTIITWNQGGNDVAVEGSWDNWRSRKKLQKSGKDHSILFVLPSGIYHYKVIVDGESKYIPDLPFVADEVGNVCNILDVHNFVPENPESIVEFEAPPSPDHSYGQTLPAAEDYAKEPLAVPPQLHLTLLGTTEETAIATKPQHVVLNHVFIEQGWTPQSIVALGLTHRFESKYITVVLYKPLTR
